Measured values taken from patent US8067638B2, “Amide derivative and insecticide containing the same” (Mitsui Chemicals, Inc., priority 2005, dated 2011).
Some of these results come from one statement about several compounds together.

How the values were obtained:
Type in all cases: in vivo
[1] = test system: Diamondback Moth (Plutella xylostella); test: Insecticidal test on diamondback moth (Plutella xylostella); conditions: at 100 ppm; cabbage leaf immersed; second-instar larvae; counted 6 days after release; 25° C.
[2] = test system: Common Cutworm (Spodoptera litura); test: Insecticidal test on common cutworm (Spodoptera litura); conditions: at 100 ppm; cabbage leaf immersed; second-instar larvae; counted 6 days after release; 25° C.
[3] = test system: Small Brown Planthopper (Laodelphax striatellus); test: Insecticidal test on small brown planthopper (Laodelphax striatellus); conditions: at 1000 ppm; acetone solution dispersed on rice seedlings; counted 6 days after treatment; 25° C.

Measured: mortality

CCCS(=O)(=O)N(C)c1cccc(C(=O)Nc2c(C)cc(C(F)(C(F)(F)F)C(F)(F)F)cc2C)c1 [4-32]
≥ 70%: [1] | [2] | [3]

O=C(Nc1c(Cl)cc(C(F)(F)F)cc1C(F)(F)F)c1cccc(NC(=O)c2c(F)cccc2F)c1 [1-367]
≥ 70%: [1] | [2] | [3]
